From PMC8946178
These are yes or no findings as the source states them, for the method shown. In cells and extracts the contact can be indirect. Binding can be weak; no strength is given. Where a sequence is shown, tags or fusion partners need not be part of it.

Molecular target: Flag-HSP70
Test: co-IP; Flag-HSP70 and HA-KANK2 co-expressed in HEK 293T cells; RIPA lysate; anti-Flag M2 beads overnight at 4 °C; Western blot

- binding: binds
B1: HA-KANK2 (protein, UniProt Q63ZY3 1-851)
chain: MAQVLHVPAPFPGTPGPASPPAFPAKDPDPPYSVETPYGYRLDLDFLKYVDDIEKGHTLRRVAVQRRPRLSSLPRGPGSWWTSTESLCSNASGDSRHSAYSYCGRGFYPQYGALETRGGFNPRVERTLLDARRRLEDQAATPTGLGSLTPSAAGSTASLVGVGLPPPTPRSSGLSTPVPPSAGHLAHVREQMAGALRKLRQLEEQVKLIPVLQVKLSVLQEEKRQLTVQLKSQKFLGHPTAGRGRSELCLDLPDPPEDPVALETRSVGTWVRERDLGMPDGEAALAAKVAVLETQLKKALQELQAAQARQADPQPQAWPPPDSPVRVDTVRVVEGPREVEVVASTAAGAPAQRAQSLEPYGTGLRALAMPGRPESPPVFRSQEVVETMCPVPAAATSNVHMVKKISITERSCDGAAGLPEVPAESSSSPPGSEVASLTQPEKSTGRVPTQEPTHREPTRQAASQESEEAGGTGGPPAGVRSIMKRKEEVADPTAHRRSLQFVGVNGGYESSSEDSSTAENISDNDSTENEAPEPRERVPSVAEAPQLRPAGTAAAKTSRQECQLSRESQHIPTAEGASGSNTEEEIRMELSPDLISACLALEKYLDNPNALTERELKVAYTTVLQEWLRLACRSDAHPELVRRHLVTFRAMSARLLDYVVNIADSNGNTALHYSVSHANFPVVQQLLDSGVCKVDKQNRAGYSPIMLTALATLKTQDDIETVLQLFRLGNINAKASQAGQTALMLAVSHGRVDVVKALLACEADVNVQDDDGSTALMCACEHGHKEIAGLLLAVPSCDISLTDRDGSTALMVALDAGQSEIASMLYSRMNIKCSFAPMSDDESPTSSSAEE
